# According to PubChem BioAssay AID258 (DTP/NCI, 2004):
# The list shows only some results of the screen, not a fair sample: it covers a few groups of compounds. Not every dose and run of a compound is shown. T/C is the treated group as % of the vehicle group. Where survival is the endpoint, this PubChem deposit counts one and a half times the control or more as active, and values a quarter to a half above the control carry no call in these data; other NCI protocols may use other cut-offs. Some entries show no survivor count and are marked so; the dose need not have been tolerated. Schedule codes are those of the source, read here as Q, the interval in days (D) or hours (H), X, the number of doses. Some schedule codes hold Z or #, which are not explained here.
# Tested on: CD2F1 mice, L1210 leukemia sc, survival T/C
# Assay: NCI In Vivo Anticancer Drug Screen. Data for tumor model L1210 Leukemia (subcutaneous) in CD2F1 (CDF1) mice
# Conditions: T/C endpoint: median survival time, schedule: Q01DX Z (sc), vehicle: methylcellulose (MC), higher T/C = longer survival
# Experimental: The antitumor activity of compounds was measured in mice bearing transplantable tumors. Survival or tumor size were measured and the results are expressed as the measurement made in the treated group (T) divided by the measurement made in the vehicle treated control group (C). The tumor model used in this assay is L1210 Leukemia (subcutaneous) in CD2F1 (CDF1) mice
smiles,measurement,setting,value
Cc1cc2nc(CN(CCCl)CCCl)[nH]c2cc1C,T/C,dose: 23.0 mg/kg/injection,116 % of control [survivor count not shown]
same,T/C,dose: 39.0 mg/kg/injection,133 % of control [survivor count not shown]
same,T/C,dose: 65.0 mg/kg/injection,133 % of control [survivor count not shown]
same,T/C,dose: 108.0 mg/kg/injection,108 % of control [survivor count not shown]
same,T/C,dose: 180.0 mg/kg/injection,91 % of control [survivor count not shown]
